Measured values as given in US9540389B2, “Antimicrobial potentiators” (priority 2013, dated 2017).
Read-outs that look alike come from different tables or passages of the source. The name of at least one read-out is uncertain.

System: Escherichia coli AB1157
Conditions: E. coli AB1157; for Levofloxacin MPC2: minimal concentration of test compound that decreases the MIC of levofloxacin by 2 fold; for Levofloxacin MPC4: minimal concentration of test compound that decreases the MIC of levofloxacin by 4 fold; for Levofloxacin MPC8: minimal concentration of test compound that decreases the MIC of levofloxacin by 8 fold; for Piperacillin MPC2: minimal concentration of test compound that decreases the MIC of piperacillin by 2 fold; for Piperacillin MPC4: minimal concentration of test compound that decreases the MIC of piperacillin by 4 fold; for Piperacillin MPC8: minimal concentration of test compound that decreases the MIC of piperacillin by 8 fold

| SMILES | Levofloxacin MPC2 | Levofloxacin MPC4 | Levofloxacin MPC8 | Piperacillin MPC2 | Piperacillin MPC4 | Piperacillin MPC8 | Levofloxacin MPC8 (listed as 2855) |
| --- | --- | --- | --- | --- | --- | --- | --- |
| COCCN1CCN(c2nc(SCCOc3cccc(Cl)c3)c(C#N)c3c2COC(C)(C)C3)CC1 [MBX2846] | ≦1.56 μM | ≧100 μM | ≧100 μM | 3.13 µM | 25 µM | ≧100 μM |  |
| CC1CN(c2nc(SCCc3cccc(F)c3)c(C#N)c3c2COC(C)(C)C3)CC(C)O1 (centres unmarked) [MBX2872] | ≦1.56 μM | 50 µM | ≧100 μM | ≦1.56 μM | ≦1.56 μM | ≦1.56 μM |  |
| CC1(C)Cc2c(C#N)c(SCCc3coc4ccccc34)nc(N3CCOCC3)c2CO1 [MBX2895] | ≦1.56 μM | ≧100 μM | ≧100 μM | ≦1.56 μM | 6.25 µM | ≧100 μM |  |
| N#Cc1c(SCCc2ccccc2)nc(N2CCOCC2)c2c1CCOC2 [MBX2814] | ≧100 μM | ≧100 μM | ≧100 μM | 12.5 µM | ≧100 μM | ≧100 μM |  |
| CN(C)c1nc(SCCc2ccccc2)c(C#N)c2c1COC(C)(C)C2 [MBX2440] | ≦1.56 μM | 3.125 µM | ≧100 μM | ≦1.56 μM | ≦1.56 μM | 6.25 µM |  |
| Cc1cccc(CCSc2nc(N3CCOCC3)c3c(c2C#N)CC(C)(C)OC3)c1 [MBX2884] | ≦1.56 μM | 3.13 µM | >=100 μM | ≦1.56 μM | 3.13 µM | ≧100 μM |  |
| CC(=O)Nc1ccc(CCSc2nc(N3CC(C)OC(C)C3)c3c(c2C#N)CC(C)(C)OC3)cc1 (centres unmarked) [MBX3132] | ≦0.049 μM | 0.097 µM | ≧3.125 μM | ≦0.049 μM | 0.097 µM | ≦0.39 μM |  |
| CC1CN(c2nc(SCCc3ccc(NS(C)(=O)=O)cc3)c(C#N)c3c2COC(C)(C)C3)CC(C)O1 (centres unmarked) [MBX3134] | ≦1.56 μM | 6.25 µM | ≧100 μM | ≦1.56 μM | 6.25 µM | ≧100 μM |  |
| CC1(C)Cc2c(C#N)c(SCCc3ccccc3)nc(N3CCOCC3)c2CO1 [MBX2319] | ≦1.56 μM | 3.13 µM | ≧100 μM | ≦1.56 μM | 3.13 µM | 12.5 µM |  |
| CC1CN(c2nc(SCCc3ccc(N)cc3)c(C#N)c3c2COC(C(C)C)C3)CC(C)O1 (centres unmarked) [MBX3335] | ≦1.56 μM | 3.13 µM | ≧100 μM | ≦1.56 μM | ≦1.56 μM | ≧100 μM |  |
| CC1(C)Cc2c(C#N)c(SCCc3cccc(C#N)c3)nc(N3CCOCC3)c2CO1 [MBX2923] | ≦1.56 μM |  | ≧100 μM | ≦1.56 μM | 6.25 µM | ≧100 μM |  |
| CC1(C)Cc2c(C#N)c(SCCc3ccccc3)nc(N3CCCOCC3)c2CO1 [MBX2804] | ≦1.56 μM | ≧100 μM | ≧100 μM | ≦1.56 μM | ≦1.56 μM | ≧100 μM |  |
| COc1ccc(CCSc2nc(N3CCOCC3)c3c(c2C#N)CC(C(C)C)OC3)cc1OC (centres unmarked) [MBX3325] | ≦1.56 μM | 12.5 µM | ≧100 μM | ≦1.56 μM | ≦1.56 μM | 6.25 µM |  |
| CCN(CC)c1nc(SCCc2ccccc2)c(C#N)c2c1COC(C)(C)C2 [MBX2441] | ≦1.56 μM | ≧100 μM | ≧100 μM | ≦1.56 μM | 6.25 µM | ≧100 μM |  |
| CC1(C)Cc2c(C#N)c(S)nc(N3CCOCC3)c2CO1 [MBX2687] | ≧100 μM | ≧100 μM | ≧100 μM | ≧100 μM | ≧100 μM | ≧100 μM |  |
| CN1CCCN(c2nc(SCCc3ccc(Cl)cc3Cl)c(C#N)c3c2COC(C)(C)C3)CC1 [MBX2827] | 3.125 µM | 25 µM | ≧100 μM | 3.13 µM | 25 µM | ≧100 μM |  |

| SMILES | Levofloxacin MPC2 | Levofloxacin MPC4 | Levofloxacin MPC8 | Piperacillin MPC2 | Piperacillin MPC4 | Piperacillin MPC8 | Levofloxacin MPC8 (listed as 2855) |
| --- | --- | --- | --- | --- | --- | --- | --- |
| CC1CN(c2nc(SCCc3ccc(NC(=O)CCC(=O)O)cc3)c(C#N)c3c2COC(C)(C)C3)CC(C)O1 (centres unmarked) [MBX3229] | ≦1.56 μM | 6.25 µM | ≧100 μM | ≦1.56 μM | ≦1.56 μM | 12.5 µM |  |
| COc1ccc(CCSc2nc(N3CCOCC3)c3c(c2C#N)CC(C)(C)OC3)cc1OC [MBX3353] | ≦1.56 μM | 1.25 µM | ≧100 μM | ≦0.195 μM | 0.781 µM | 1.5625 µM |  |
| CN1CCN(c2nc(SCCc3ccccc3)c(C#N)c3c2COC(C)(C)C3)CC1 [MBX2408] | ≦1.56 μM | 6.25 µM | ≧100 μM | ≦1.56 μM | 6.25 µM | 12.5 µM |  |
| CN1CCCN(c2nc(SCCc3ccccc3)c(C#N)c3c2COC(C)(C)C3)CC1 [MBX2503] | ≦1.56 μM |  | ≧100 μM | ≦1.56 μM | ≧25 μM | 25 µM |  |
| CSc1cccc(CCSc2nc(N3CC(C)OC(C)C3)c3c(c2C#N)CC(C)(C)OC3)c1 (centres unmarked) [MBX3097] | ≦1.56 μM | ≧100 μM | ≧100 μM | ≦1.56 μM | 3.125 µM | ≧100 μM |  |
| CC1(C)Cc2c(C#N)c(SCCc3cccc(Cl)c3)nc(N3CCOCC3)c2CO1 [MBX2855] |  |  |  |  |  |  | >=100 μM |
| COCCN1CCN(c2nc(SCCc3ccc(OC)cc3)c(C#N)c3c2COC(C)(C)C3)CC1 [MBX2928] | ≦1.56 μM | 25 µM | ≧100 μM | ≦1.56 μM | 3.12 µM | 12.5 µM |  |
| CC1(C)Cc2c(C#N)c(SCCc3cccnc3)nc(N3CCOCC3)c2CO1 [MBX2698] | ≦1.56 μM | 25 µM | ≧100 μM | ≦1.56 μM | 3.13 µM | 25 µM |  |
| CN1CCCN(c2nc(SCC(O)c3ccccc3)c(C#N)c3c2COC(C)(C)C3)CC1 (centres unmarked) [MBX2802] | ≧100 μM | ≧100 μM | ≧100 μM | ≧100 μM | ≧100 μM | ≧100 μM |  |
| C=CC(=O)Nc1ccc(CCSc2nc(N3CC(C)OC(C)C3)c3c(c2C#N)CC(C(C)C)OC3)cc1 (centres unmarked) [MBX3336] | ≦1.56 μM | 50 µM | ≧100 μM | ≦1.56 μM | ≦1.56 μM | 12.5 µM |  |
| CN1CCCN(c2nc(SCCc3cccc(Br)c3)c(C#N)c3c2COC(C)(C)C3)CC1 [MBX2829] | ≦1.56 μM | 12.5 µM | ≧100 μM | ≦1.56 μM | 6.25 µM | 50 µM |  |
| CC1CN(c2nc(SCCc3ccc(NC(=O)OC(C)(C)C)cc3)c(C#N)c3c2COC(C)(C)C3)CC(C)N1CC(=O)O (centres unmarked) [MBX3269A] | ≧100 μM | ≧100 μM | ≧100 μM | ≦1.56 μM | ≦1.56 μM | ≧100 μM |  |
| CC1CN(c2nc(SCCc3ccc(C(=O)O)cc3)c(C#N)c3c2COC(C)(C)C3)CC(C)N1 (centres unmarked) [MBX3309A] | 50 µM | ≧100 μM | ≧100 μM | <=12.5 μM | 12.5 µM | ≧100 μM |  |
| COCCN1C(C)CN(c2nc(SCCc3ccc(NC(=O)OC(C)(C)C)cc3)c(C#N)c3c2COC(C)(C)C3)CC1C (centres unmarked) [MBX3226] | ≦1.56 μM | 3.13 µM | ≧100 μM | ≦1.56 μM | 3.13 µM | ≧100 μM |  |
| C=CC(=O)Nc1ccc(CCSc2nc(N3CC(C)OC(C)C3)c3c(c2C#N)CC(C)(C)OC3)cc1 (centres unmarked) [MBX3135] | ≦0.195 μM | ≦0.195 μM | 1.5625 µM | ≦0.195 μM | ≦0.195 μM | ≦0.195 μM |  |
| COCCN1CCN(c2nc(SCCC3OCCCO3)c(C#N)c3c2COC(C)(C)C3)CC1 [MBX2844] | 50 µM | ≧100 μM | ≧100 μM | 25 µM | ≧100 μM | ≧100 μM |  |
